## Results of single-concentration screens

Data taken from ChEMBL document CHEMBL3988442, “University of Dundee, Small-Polar-MMV Screening Library” (2021).

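Whole-cell growth test on Mycobacterium tuberculosis, read after 3 days in glucose-containing 7H9 medium; the read-out is not stated. Tested at 50 µM. Direction is inferred from retests: higher values go with more growth inhibition. Size under these conditions: about 69,000 compounds, about 760 of them at 50% or above in at least one test.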

Values are the deposited “Percent Effect”, in %. The record does not define 0% and 100%; most values in the screen are far below 50% and negative numbers occur (in some assays of this library far below -100). Compounds were drawn at random from those tested, without regard to their results. Two or more numbers in one place are separate tests of the same structure; such repeats can differ widely.

COc1ccccc1NC(=O)Cc1c(C)nc2c(c1C)c(=O)[nH]n2C read -7.555%. For CN(C)CCN(Cc1ccc(F)cc1)C(=O)c1ccn(C)c(=O)c1 the result was 5.084%. CCc1cc(-c2cc[nH]n2)nc(N2CCOCC2)n1 gave 17.96%. With CCn1c(C2CCN(C(=O)CCc3cc(Cl)no3)CC2)nn(C)c1=O the screen gave 18.83%. For Cc1cc(=O)c2ccccc2n1CC1CCCN(C)C1 (stereo not shown) the result was 20.11%. For Cc1cccc(C(=O)N2CCn3c(CN4CCN(C)CC4)cnc3C2)n1 the result was 10.05%. For O=C(Nc1cnn(-c2ccccc2Cl)c1)NC1CCC(O)CC1 (stereo not shown) the result was -5.479%.

For CCn1cc(CN(C)C(=O)c2cc(C(F)(F)F)n(C)n2)cn1 the result was 19.29%. O=C(COc1ccc2c(c1)CCC2)NS(=O)(=O)c1cccnc1 read -10.48%. COCCOCC(=O)Nc1ccc(F)cc1C gave -17.64%. For CN(C)Cc1noc2c1CN(C(=O)c1ccncc1)CC2.O=C(O)C(F)(F)F.O=C(O)C(F)(F)F the result was -36.65% & -10.14%. For CN(C)c1cc(CNC(=O)c2ccc(Br)cc2F)ccn1 the result was -0.7166%. Result for CC(C)C(NC(=O)c1ccccc1F)C(=O)N1CCC2(CC1)OCCO2 (stereo not shown) was -36.82% & 1.044%. O=C1NC(c2cnc(C3CCC3)s2)Nc2ccccc21 (stereo not shown) read -23.11%.

CCCN1CCCN(CCCOc2cccc(C#N)c2)CC1 read 14.95%. Result for CC(C)C(=O)N1CCOC[C@H](Oc2ccc(C(F)(F)F)cc2)C1 was -6.532% & -2.722%. Result for CCOCCN1CCN(CCC(=O)N2CCCCC2)CC1 was 13.29%. With CCSCCn1cc(-c2nccs2)nn1 the screen gave -9.619%. Cc1cc(F)c2c(c1)CCCN2C(=O)c1cncc(Br)c1 gave 29.73%. For CS(=O)(=O)NCC1CCCN(C(=O)c2ccc(F)c(F)c2)C1 (stereo not shown) the result was -42.8%. Result for Cl.O=S(=O)(N1CCCCC1)N1CCc2nc(C3CCNCC3)ncc2C1 was 57%.

O=C(c1ccc[nH]1)N1Cc2nccn2CC(COc2cccnc2)C1 (stereo not shown) read -17.11%. O=C1CCNc2ncc(-c3ccc(Cl)cc3)cc2CN1C1CC1 read 33.67%. Result for CC(C)CN1CCC2(CCN(Cc3ccoc3)CC2)C1=O was 4.159%. Result for COc1ccc2c(C)nc(N3CCN([C@H]4CCCC[C@@H]4O)CC3)nc2c1 was -20.95% & 10.91%. Result for CCOc1ccccc1NC(C)C(=O)N(C)Cc1cccc(F)c1 (stereo not shown) was -27.31% & -0.5965%. For [H][C@@]12C[C@H](C(=O)N(C)C)[C@@]([H])(CN(S(=O)(=O)c3cccc(C)c3)C1)O2 the result was 6.649% & -1.745%. CN(C)c1ncnc2c1CCN(c1cccc(F)c1)CC2 read -5.34% & 61.27%.

CC1CCN(C(=O)c2ccn(COc3ccc(F)cc3)n2)CC1 gave -39.2%. With CC(C)CNC(=O)C(C)N1CCN(C2CCN(C(C)C)CC2)CC1 (stereo not shown) the screen gave -2.595% & -0.04412%. O[C@H]1CN(Cc2c[nH]nc2-c2ccccc2)CC[C@@]12CCCO2 read -43.5%. CC(NC(=O)Cn1cc(C(N)=O)c(-c2ccccc2)n1)C1CC1 (stereo not shown) gave 2.395%. For CNC(=O)c1cc(NC(=O)Nc2cnn(CC(C)C)c2)ccc1F the result was 16.75%.

The last 2 entries again:

CC(NC(=O)Cn1cc(C(N)=O)c(-c2ccccc2)n1)C1CC1 (stereo not shown) gave 2.395%.
CNC(=O)c1cc(NC(=O)Nc2cnn(CC(C)C)c2)ccc1F gave 16.75%.